# The list shows a part of the results. Many values rest on one well or one pass, so single values are uncertain.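 Imaging used 1,536-well plates; nuclei positive for cleaved PARP by antibody were divided by total DNA-stained nuclei to yield the apoptosis fraction. Doses for screening kept most cells viable, and cell lines differ markedly in resting and induced cleaved-PARP levels.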
# How the values were obtained:
# Assay in all cases: cleaved PARP positive nuclei fraction relative to DMSO control; melanoma cells; higher = more apoptosis
# Conditions in all cases: library dose: low library concentration; 72 h
# MZ2-MEL = system: MZ2-MEL
# MeWo = system: MeWo
# RPMI7951 = system: RPMI7951
# RVH-421 = system: RVH-421
# SkMel28 = system: SkMel28
# SkMel2 = system: SkMel2
# SkMel30 = system: SkMel30
# UACC62 = system: UACC62
# WM115 = system: WM115
# WM1716 = system: WM1716
# WM1745 = system: WM1745
# WM3526 = system: WM3526
# WM3619 = system: WM3619
# WM451Lu = system: WM451Lu
SMILES,cleaved PARP positive nuclei fraction (MZ2-MEL) [%],cleaved PARP positive nuclei fraction (MeWo) [%],cleaved PARP positive nuclei fraction (RPMI7951) [%],cleaved PARP positive nuclei fraction (RVH-421) [%],cleaved PARP positive nuclei fraction (SkMel28) [%],cleaved PARP positive nuclei fraction (SkMel2) [%],cleaved PARP positive nuclei fraction (SkMel30) [%],cleaved PARP positive nuclei fraction (UACC62) [%],cleaved PARP positive nuclei fraction (WM115) [%],cleaved PARP positive nuclei fraction (WM1716) [%],cleaved PARP positive nuclei fraction (WM1745) [%],cleaved PARP positive nuclei fraction (WM3526) [%],cleaved PARP positive nuclei fraction (WM3619) [%],cleaved PARP positive nuclei fraction (WM451Lu) [%]
"O=C(/C=C/c1cccnc1)NCCCCC1CCN(C(=O)c2ccccc2)CC1 + OCc1c[nH]c2ccccc12 [Indole-3-carbinol] (first compound 0.01 µM, partner dose 0.8 µM)",104,36.4,286,135,78,593,85.2,129,151,48.6,90.8,165,105,159
"O=C(/C=C/c1cccnc1)NCCCCC1CCN(C(=O)c2ccccc2)CC1 + O=C(O)c1ccc2c(c1)nc(Nc1cccc(Cl)c1)c1ccncc12 [CX4945] (first compound 0.01 µM, partner dose 0.4 µM)",730,39.7,95.4,161,86.1,2350,60.8,152,142,172,96.1,98,100,89.5
"COc1cc([C@@H]2c3cc4c(cc3[C@@H](O[C@@H]3O[C@@H]5CO[C@@H](C)O[C@H]5[C@H](O)[C@H]3O)[C@H]3COC(=O)[C@H]23)OCO4)cc(OC)c1O [etoposide] + CCN(CC)CCNC(=O)c1c(C)[nH]c(/C=C2\C(=O)Nc3ccc(F)cc32)c1C [sunitinib] (first compound 0.02 µM, partner dose 0.4 µM)",22.2,33.6,168,65.2,79.7,116,101,278,73.2,81.6,96.6,167,83.9,53.2
"O=C(Nc1cc(C(F)(F)F)cc(C(F)(F)F)c1)c1cc(Cl)ccc1O + Cc1cn(-c2cc(NC(=O)c3ccc(C)c(Nc4nccc(-c5cccnc5)n4)c3)cc(C(F)(F)F)c2)cn1 [nilotinib] (first compound 0.016 µM, partner dose 0.2 µM)",99.3,22.8,106,91.3,140,88.7,95.3,151,119,282,102,75.6,82.2,93.8
"Cc1ccc(Nc2nccc(N(C)c3ccc4c(C)n(C)nc4c3)n2)cc1S(N)(=O)=O [Pazopanib] + Cc1nc(Nc2ncc(C(=O)Nc3c(C)cccc3Cl)s2)cc(N2CCN(CCO)CC2)n1 [dasatanib] (first compound 0.4 µM, partner dose 0.004 µM)",184,85.6,125,52,64.5,165,38.6,122,65.2,171,134,50.4,127,116
"N#CC[C@H](C1CCCC1)n1cc(-c2ncnc3[nH]ccc23)cn1 [ruxolitinib] + Cn1nnc2c(C(N)=O)ncn2c1=O [temozolomide] (first compound 1 µM, partner dose 2 µM)",101,197,95.2,89.5,80.3,154,44,84.4,131,75.9,102,40,85,28.1
"O=C(/C=C/c1cccnc1)NCCCCC1CCN(C(=O)c2ccccc2)CC1 + Cn1c(Nc2ccc(C(F)(F)F)cc2)nc2cc(Oc3ccnc(-c4ncc(C(F)(F)F)[nH]4)c3)ccc21 [CHIR265] (first compound 0.01 µM, partner dose 0.08 µM)",532,357,129,145,122,511,93.4,335,558,77.5,135,161,127,87.6
"COc1cc([C@@H]2c3cc4c(cc3[C@@H](O[C@@H]3O[C@@H]5CO[C@@H](C)O[C@H]5[C@H](O)[C@H]3O)[C@H]3COC(=O)[C@H]23)OCO4)cc(OC)c1O [etoposide] + O=C(O)[C@@H]1[O][Sb](=[O])([O][Sb]2(=[O])[O][C@H]([C@H](O)CO)[C@H](O)[C@H](C(=O)O)[O]2)[O][C@H]([C@H](O)CO)[C@@H]1O [stibogluconate] (first compound 0.02 µM, partner dose 2 µM)",162,95.8,108,166,70.1,74.3,18,59.6,101,39.9,109,94.6,97.2,101
"Cc1ccc(Nc2nccc(N(C)c3ccc4c(C)n(C)nc4c3)n2)cc1S(N)(=O)=O [Pazopanib] + CN(c1ncccc1CNc1nc(Nc2ccc3c(c2)CC(=O)N3)ncc1C(F)(F)F)S(C)(=O)=O [PF562271] (first compound 0.4 µM, partner dose 0.08 µM)",147,155,173,36.8,172,119,93.8,37.1,134,186,108,74.3,101,213
"CC[C@]1(O)C[C@H]2CN(CCc3c([nH]c4ccccc34)[C@@](C(=O)OC)(c3cc4c(cc3OC)N(C=O)[C@H]3[C@@](O)(C(=O)OC)[C@H](OC(C)=O)[C@]5(CC)C=CCN6CC[C@]43[C@@H]65)C2)C1 [vincristine] + CCCS(=O)(=O)Nc1ccc(F)c(C(=O)c2c[nH]c3ncc(Cl)cc23)c1F [PLX4720] (first compound 0.0001 µM, partner dose 0.08 µM)",24.2,343,160,46.4,242,213,222,317,514,147,92.4,86.7,173,190
"Cc1cn(-c2cc(NC(=O)c3ccc(C)c(Nc4nccc(-c5cccnc5)n4)c3)cc(C(F)(F)F)c2)cn1 [nilotinib] + CCN(CC)CCNC(=O)c1c(C)[nH]c(/C=C2\C(=O)Nc3ccc(F)cc32)c1C [sunitinib] (first compound 0.2 µM, partner dose 0.4 µM)",34.9,87.6,89.2,163,40.2,124,488,144,78,79.6,102,99.6,66.8,55.8
"Cc1cn(-c2cc(NC(=O)c3ccc(C)c(Nc4nccc(-c5cccnc5)n4)c3)cc(C(F)(F)F)c2)cn1 [nilotinib] + Cn1cnc2c(F)c(Nc3ccc(Br)cc3Cl)c(C(=O)NOCCO)cc21 [selumetinib] (first compound 0.2 µM, partner dose 0.015 µM)",94.6,66.7,68.6,52.6,87.1,104,41.6,55.8,116,31.2,109,81,213,37.2
"CCCCCCCCCCCCCCCCCCOP(=O)([O-])OC1CC[N+](C)(C)CC1 [Perifosine] + Cc1cc(Nc2cc(N3CCN(C)CC3)nc(/C=C/c3ccccc3)n2)n[nH]1 [ENMD2076] (first compound 0.4 µM, partner dose 0.04 µM)",65.9,100,63.6,388,85.9,153,258,152,140,139,299,44.2,104,78.1
"Cc1cc(Nc2cc(N3CCN(C)CC3)nc(Sc3ccc(NC(=O)C4CC4)cc3)n2)n[nH]1 [Tozasertib] + Cn1nnc2c(C(N)=O)ncn2c1=O [temozolomide] (first compound 0.006 µM, partner dose 2 µM)",35.3,92.4,72.7,95.9,107,46.2,38.3,99.7,146,123,98.6,311,99.6,101
"O=C(Nc1cc(C(F)(F)F)cc(C(F)(F)F)c1)c1cc(Cl)ccc1O + Nc1cccc2c1CN(C1CCC(=O)NC1=O)C2=O [lenalidomide] (first compound 0.016 µM, partner dose 1 µM)",50.8,113,33.3,86.5,218,46.6,84.4,98.4,74.4,81,74.3,61.6,102,166
"COc1cc([C@@H]2c3cc4c(cc3[C@@H](O[C@@H]3O[C@@H]5CO[C@@H](C)O[C@H]5[C@H](O)[C@H]3O)[C@H]3COC(=O)[C@H]23)OCO4)cc(OC)c1O [etoposide] + COc1ccc(Cl)c(Nc2nc3ccccc3nc2NS(=O)(=O)c2cccc(NC(=O)C(C)(C)N)c2)c1 [XL147] (first compound 0.02 µM, partner dose 0.8 µM)",84.9,39.1,59.5,301,102,105,44.1,56.1,71.5,135,109,101,94.5,28.7
"O=c1[nH]nc(Sc2ncc([N+](=O)[O-])s2)n1-c1ccc2c(c1)OCCO2 + Cn1cnc2c(F)c(Nc3ccc(Br)cc3Cl)c(C(=O)NOCCO)cc21 [selumetinib] (first compound 0.2 µM, partner dose 0.015 µM)",210,205,114,106,78.1,82,84.1,138,48.2,74.8,105,96.8,142,43.3
"O=C(Nc1cc(C(F)(F)F)cc(C(F)(F)F)c1)c1cc(Cl)ccc1O + O=C(/C=C/c1cccnc1)NCCCCC1CCN(C(=O)c2ccccc2)CC1 [FK866] (first compound 0.016 µM, partner dose 0.01 µM)",149,197,50.4,82.8,79.9,281,28.1,109,29.2,95.9,105,194,103,120

# Complete entries as entered above. Order of values: cleaved PARP positive nuclei fraction (MZ2-MEL) [%] | cleaved PARP positive nuclei fraction (MeWo) [%] | cleaved PARP positive nuclei fraction (RPMI7951) [%] | cleaved PARP positive nuclei fraction (RVH-421) [%] | cleaved PARP positive nuclei fraction (SkMel28) [%] | cleaved PARP positive nuclei fraction (SkMel2) [%] | cleaved PARP positive nuclei fraction (SkMel30) [%] | cleaved PARP positive nuclei fraction (UACC62) [%] | cleaved PARP positive nuclei fraction (WM115) [%] | cleaved PARP positive nuclei fraction (WM1716) [%] | cleaved PARP positive nuclei fraction (WM1745) [%] | cleaved PARP positive nuclei fraction (WM3526) [%] | cleaved PARP positive nuclei fraction (WM3619) [%] | cleaved PARP positive nuclei fraction (WM451Lu) [%]
# Cc1ccc(Nc2nccc(N(C)c3ccc4c(C)n(C)nc4c3)n2)cc1S(N)(=O)=O [Pazopanib] + CN(c1ncccc1CNc1nc(Nc2ccc3c(c2)CC(=O)N3)ncc1C(F)(F)F)S(C)(=O)=O [PF562271] (first compound 0.4 µM, partner dose 0.08 µM) as listed: 147 | 155 | 173 | 36.8 | 172 | 119 | 93.8 | 37.1 | 134 | 186 | 108 | 74.3 | 101 | 213
# CC[C@]1(O)C[C@H]2CN(CCc3c([nH]c4ccccc34)[C@@](C(=O)OC)(c3cc4c(cc3OC)N(C=O)[C@H]3[C@@](O)(C(=O)OC)[C@H](OC(C)=O)[C@]5(CC)C=CCN6CC[C@]43[C@@H]65)C2)C1 [vincristine] + CCCS(=O)(=O)Nc1ccc(F)c(C(=O)c2c[nH]c3ncc(Cl)cc23)c1F [PLX4720] (first compound 0.0001 µM, partner dose 0.08 µM) as listed: 24.2 | 343 | 160 | 46.4 | 242 | 213 | 222 | 317 | 514 | 147 | 92.4 | 86.7 | 173 | 190
